Our source for the binding values is article doi:10.1101/2023.04.27.538587.

Amino acid sequences for entries named in this document (tags omitted).
UniProt P25095: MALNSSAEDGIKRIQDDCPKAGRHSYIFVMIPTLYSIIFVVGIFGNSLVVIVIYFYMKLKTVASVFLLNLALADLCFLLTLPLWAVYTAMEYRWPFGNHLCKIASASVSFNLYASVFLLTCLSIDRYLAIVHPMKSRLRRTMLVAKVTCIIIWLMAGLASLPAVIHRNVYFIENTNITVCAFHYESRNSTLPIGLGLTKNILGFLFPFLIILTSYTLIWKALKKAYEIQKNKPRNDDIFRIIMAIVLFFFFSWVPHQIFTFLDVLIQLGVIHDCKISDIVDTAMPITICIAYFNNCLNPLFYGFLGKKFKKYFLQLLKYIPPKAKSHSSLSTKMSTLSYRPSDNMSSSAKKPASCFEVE
UniProt P28482: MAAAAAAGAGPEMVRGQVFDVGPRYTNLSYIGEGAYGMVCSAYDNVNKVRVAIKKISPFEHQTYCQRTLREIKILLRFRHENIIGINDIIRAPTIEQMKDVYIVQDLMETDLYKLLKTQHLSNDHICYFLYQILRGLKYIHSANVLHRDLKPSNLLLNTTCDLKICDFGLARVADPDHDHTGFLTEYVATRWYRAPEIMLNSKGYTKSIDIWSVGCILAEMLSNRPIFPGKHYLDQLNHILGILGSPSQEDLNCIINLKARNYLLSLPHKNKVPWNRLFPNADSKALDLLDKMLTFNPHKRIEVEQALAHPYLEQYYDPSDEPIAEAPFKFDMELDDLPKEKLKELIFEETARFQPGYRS
UniProt P29066: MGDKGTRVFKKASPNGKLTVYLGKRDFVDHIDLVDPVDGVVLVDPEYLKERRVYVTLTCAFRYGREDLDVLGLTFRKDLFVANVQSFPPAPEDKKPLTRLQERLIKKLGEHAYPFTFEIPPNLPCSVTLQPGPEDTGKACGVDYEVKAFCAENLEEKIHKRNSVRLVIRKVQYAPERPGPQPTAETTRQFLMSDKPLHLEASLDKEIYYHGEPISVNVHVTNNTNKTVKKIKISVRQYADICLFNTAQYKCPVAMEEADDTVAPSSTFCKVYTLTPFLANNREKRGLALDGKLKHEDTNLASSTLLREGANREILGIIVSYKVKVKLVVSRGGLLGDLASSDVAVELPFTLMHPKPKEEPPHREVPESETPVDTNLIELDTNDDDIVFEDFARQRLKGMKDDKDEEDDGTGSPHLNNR
UniProt P29067: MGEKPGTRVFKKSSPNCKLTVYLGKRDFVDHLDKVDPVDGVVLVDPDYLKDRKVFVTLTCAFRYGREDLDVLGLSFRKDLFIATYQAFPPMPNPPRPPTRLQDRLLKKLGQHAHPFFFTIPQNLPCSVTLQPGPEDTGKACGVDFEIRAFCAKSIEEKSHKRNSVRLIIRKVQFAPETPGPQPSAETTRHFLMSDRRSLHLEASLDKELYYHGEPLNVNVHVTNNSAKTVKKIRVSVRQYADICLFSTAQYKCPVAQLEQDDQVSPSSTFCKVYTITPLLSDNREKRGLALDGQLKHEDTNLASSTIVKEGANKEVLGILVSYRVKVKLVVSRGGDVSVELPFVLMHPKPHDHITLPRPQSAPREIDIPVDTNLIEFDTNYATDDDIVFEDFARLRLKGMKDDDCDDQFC

Results are given in words; binding and its absence hold for the method and conditions named. In cells and extracts the contact can be indirect. Some binding calls cover weakened binding; strength is not graded here.

Experiment [1] has as its target AT1R as BRET partner in the AT1R–β-arrestin2–MEK/ERK2 complex formation assay (UniProt P25095). Put plainly: FRET or BRET.
For experiment [2], the target named is AT1 angiotensin receptor, RLuc-labeled (AT1R–RLuc) (UniProt P25095). Description: FRET or BRET.

In the case of “FLAG–ERK2–Venus (from UniProt P28482 1-360) (enzyme)”, the binding entry in experiment [1] is listed as “binds”.

As for “Venus–MEK1–FLAG (from UniProt Q02750 1-393) (enzyme)”, in experiment [1], the binding entry was “binds”.

On to “β-arrestin1–Venus (from UniProt P29066 1-418)”, for which the binding entry in experiment [2] is recorded as “binds”.

“β-arrestin2–Venus (from UniProt P29067 1-410)”: the binding result in experiment [2] was “binds”.
